# Assay results from article PMC4895136.
# These are yes or no findings as the source states them, for the method shown. In cells and extracts the contact can be indirect. Some binding calls cover weakened binding; strength is not graded here. Sequences can lack the tags named with a protein.
# B1: Myc-tagged full-length human Slitrk1 (aa 1-696), expressed in HEK293T cells (protein, UniProt Q96PX8 18-696)
# chain: NVTGDVCKEKICSCNEIEGDLHVDCEKKGFTSLQRFTAPTSQFYHLFLHGNSLTRLFPNEFANFYNAVSLHMENNGLHEIVPGAFLGLQLVKRLHINNNKIKSFRKQTFLGLDDLEYLQADFNLLRDIDPGAFQDLNKLEVLILNDNLISTLPANVFQYVPITHLDLRGNRLKTLPYEEVLEQIPGIAEILLEDNPWDCTCDLLSLKEWLENIPKNALIGRVVCEAPTRLQGKDLNETTEQDLCPLKNRVDSSLPAPPAQEETFAPGPLPTPFKTNGQEDHATPGSAPNGGTKIPGNWQIKIRPTAAIATGSSRNKPLANSLPCPGGCSCDHIPGSGLKMNCNNRNVSSLADLKPKLSNVQELFLRDNKIHSIRKSHFVDYKNLILLDLGNNNIATVENNTFKNLLDLRWLYMDSNYLDTLSREKFAGLQNLEYLNVEYNAIQLILPGTFNAMPKLRILILNNNLLRSLPVDVFAGVSLSKLSLHNNYFMYLPVAGVLDQLTSIIQIDLHGNPWECSCTIVPFKQWAERLGSEVLMSDLKCETPVNFFRKDFMLLSNDEICPQLYARISPTLTSHSKNSTGLAETGTHSNSYLDTSRVSISVLVPGLLLVFVTSAFTVVGMLVFILRNRKRSKRRDANSSASEINSLQTVCDSSYWHNGPYNADGAHRVYDCGSHSLSD
# What was measured:
# [1] = target: T1, V5-tagged Slitrk1ΔLRR1 (Δ aa 18-264), expressed in HEK293T cells (human) (UniProt Q96PX8); experiment: co-IP; HEK293T cells co-transfected with Slitrk1-myc and Slitrk1-V5 or V5-tagged variants; 750 ug lysate, IP with anti-V5 and Protein A/G Plus agarose at 4 °C, blot with myc and V5 antibodies
# T1 sequence: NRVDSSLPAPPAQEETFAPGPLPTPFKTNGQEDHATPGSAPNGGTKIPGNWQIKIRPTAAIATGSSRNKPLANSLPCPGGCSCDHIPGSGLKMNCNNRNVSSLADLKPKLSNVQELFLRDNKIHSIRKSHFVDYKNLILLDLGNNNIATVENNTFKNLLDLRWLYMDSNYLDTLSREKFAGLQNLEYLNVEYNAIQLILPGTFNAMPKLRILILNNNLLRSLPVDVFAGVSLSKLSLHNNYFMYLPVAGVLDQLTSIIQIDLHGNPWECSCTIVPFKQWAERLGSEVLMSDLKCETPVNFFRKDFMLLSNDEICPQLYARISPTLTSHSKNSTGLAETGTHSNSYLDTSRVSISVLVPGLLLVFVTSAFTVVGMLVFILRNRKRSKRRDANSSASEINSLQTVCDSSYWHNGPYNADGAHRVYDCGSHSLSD
# [2] = target: T2, V5-tagged full-length human Slitrk1 (aa 1-696), expressed in HEK293T cells (human) (UniProt Q96PX8); experiment: as above
# T2 sequence: B1 chain
binder,measurement,setting,value
B1,binding,[1],binds
same,binding,[2],binds
